Measured values taken from article PMC3708844 (2013).
Results are given in words; binding and its absence hold for the method and conditions named. For part of these data: In cells and extracts the contact can be indirect. Some entries that bind do so weakly or less than the wild type. Tags and fused reporters may be left off the sequences shown.

T1: SHINY1 (SHI1), full length, fused with the DNA binding domain (BD) (Arabidopsis thaliana) (UniProt Q8W4B1)
T1 sequence: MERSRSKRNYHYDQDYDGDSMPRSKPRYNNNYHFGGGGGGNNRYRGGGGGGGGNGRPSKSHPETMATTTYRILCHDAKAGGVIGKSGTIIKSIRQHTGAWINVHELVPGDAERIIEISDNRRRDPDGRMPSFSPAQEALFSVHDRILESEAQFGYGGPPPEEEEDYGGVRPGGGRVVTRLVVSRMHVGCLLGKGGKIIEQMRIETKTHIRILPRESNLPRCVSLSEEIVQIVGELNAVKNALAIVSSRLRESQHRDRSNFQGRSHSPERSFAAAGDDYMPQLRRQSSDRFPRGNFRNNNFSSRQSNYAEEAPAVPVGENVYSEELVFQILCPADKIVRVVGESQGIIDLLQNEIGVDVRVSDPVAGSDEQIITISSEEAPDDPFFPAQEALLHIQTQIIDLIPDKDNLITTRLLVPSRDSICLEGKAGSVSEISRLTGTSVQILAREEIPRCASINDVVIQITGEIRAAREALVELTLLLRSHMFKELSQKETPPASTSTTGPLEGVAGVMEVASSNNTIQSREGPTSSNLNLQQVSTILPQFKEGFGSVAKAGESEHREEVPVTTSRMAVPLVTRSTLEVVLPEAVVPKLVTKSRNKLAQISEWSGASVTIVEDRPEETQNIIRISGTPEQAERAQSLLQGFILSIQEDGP

T2: FLAG-SHI1 (Arabidopsis thaliana) (UniProt Q8W4B1)
T2 sequence: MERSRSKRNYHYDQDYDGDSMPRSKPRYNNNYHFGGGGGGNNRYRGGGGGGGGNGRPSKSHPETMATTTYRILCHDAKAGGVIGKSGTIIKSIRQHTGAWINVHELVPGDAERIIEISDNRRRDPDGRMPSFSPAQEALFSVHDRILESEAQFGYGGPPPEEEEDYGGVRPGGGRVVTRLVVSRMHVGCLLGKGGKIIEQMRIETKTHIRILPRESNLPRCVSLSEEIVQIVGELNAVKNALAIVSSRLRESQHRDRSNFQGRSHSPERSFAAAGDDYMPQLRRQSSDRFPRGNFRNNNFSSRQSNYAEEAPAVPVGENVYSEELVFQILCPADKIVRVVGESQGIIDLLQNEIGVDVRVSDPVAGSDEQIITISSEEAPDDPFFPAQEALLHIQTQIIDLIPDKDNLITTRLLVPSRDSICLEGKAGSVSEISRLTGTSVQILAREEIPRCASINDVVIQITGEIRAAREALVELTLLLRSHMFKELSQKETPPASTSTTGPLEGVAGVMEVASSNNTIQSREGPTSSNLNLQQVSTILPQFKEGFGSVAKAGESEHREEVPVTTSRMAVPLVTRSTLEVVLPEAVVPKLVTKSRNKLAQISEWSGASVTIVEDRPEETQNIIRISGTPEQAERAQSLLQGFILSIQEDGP

T3: FRY2-c-TAP (Arabidopsis thaliana) (UniProt Q5YDB6)
T3 sequence: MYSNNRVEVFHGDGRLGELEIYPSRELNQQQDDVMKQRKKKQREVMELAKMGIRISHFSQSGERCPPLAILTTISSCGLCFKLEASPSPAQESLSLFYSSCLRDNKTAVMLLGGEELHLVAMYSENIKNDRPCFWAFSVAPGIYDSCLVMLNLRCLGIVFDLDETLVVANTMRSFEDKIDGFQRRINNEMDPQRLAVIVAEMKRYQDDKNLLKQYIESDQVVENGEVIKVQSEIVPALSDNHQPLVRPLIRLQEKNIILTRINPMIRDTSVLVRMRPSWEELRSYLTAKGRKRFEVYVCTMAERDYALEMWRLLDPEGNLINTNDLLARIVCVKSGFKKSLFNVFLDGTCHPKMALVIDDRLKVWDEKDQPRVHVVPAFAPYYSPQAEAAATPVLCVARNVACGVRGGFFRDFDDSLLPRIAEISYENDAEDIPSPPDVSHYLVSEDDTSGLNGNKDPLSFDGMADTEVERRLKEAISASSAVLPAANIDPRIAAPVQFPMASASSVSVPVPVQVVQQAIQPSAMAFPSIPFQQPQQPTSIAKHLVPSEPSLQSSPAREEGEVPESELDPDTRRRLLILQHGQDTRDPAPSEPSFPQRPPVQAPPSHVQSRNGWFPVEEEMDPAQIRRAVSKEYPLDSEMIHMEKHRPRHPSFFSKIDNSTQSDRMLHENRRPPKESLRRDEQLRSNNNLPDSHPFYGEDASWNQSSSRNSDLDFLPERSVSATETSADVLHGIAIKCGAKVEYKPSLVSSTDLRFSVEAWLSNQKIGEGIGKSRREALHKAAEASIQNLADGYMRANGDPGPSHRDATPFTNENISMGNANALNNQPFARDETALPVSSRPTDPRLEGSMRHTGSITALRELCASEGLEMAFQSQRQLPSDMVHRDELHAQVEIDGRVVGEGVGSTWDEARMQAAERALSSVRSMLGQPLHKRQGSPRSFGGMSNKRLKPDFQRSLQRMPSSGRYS


Key:
[1] = target: T1, SHINY1 (SHI1), full length, fused with the DNA binding domain (BD) (Arabidopsis thaliana); assay: two-hybrid; screen of an Arabidopsis prey cDNA library with the SHI1 bait in S. cerevisiae Y190; medium lacking tryptophan, leucine and histidine with 25 mM 3-amino-1,2,4-triazole; confirmed by beta-galactosidase assay
[2] = target: T2, FLAG-SHI1 (Arabidopsis thaliana); assay: co-IP; proteins isolated from F1 seedlings of the cross of Flag-SHI1 and FRY2-cTAP transgenic Arabidopsis; both directions
[3] = target: T1, SHINY1 (SHI1), full length, fused with the DNA binding domain (BD) (Arabidopsis thaliana); assay: two-hybrid; directed tests and deletion analysis in Y190: SHI1 forms fused with the AD against full length FRY2-BD, FRY2 forms fused with the AD against full length SHI1-BD; growth on medium minus Trp, Leu and His with 3-AT and X-gal assay
[4] = target: T3, FRY2-c-TAP (Arabidopsis thaliana); assay: co-IP; proteins isolated from F1 seedlings of the cross of Flag-SHI1 and FRY2-cTAP transgenic Arabidopsis; both directions

Row | Binder | binding [1] | other results
1 | FRY2/CPL1 476-967 (longest prey cDNA clone of the two-hybrid screen) (domain or fragment, UniProt Q5YDB6 476-967) AISASSAVLPAANIDPRIAAPVQFPMASASSVSVPVPVQVVQQAIQPSAMAFPSIPFQQPQQPTSIAKHLVPSEPSLQSSPAREEGEVPESELDPDTRRRLLILQHGQDTRDPAPSEPSFPQRPPVQAPPSHVQSRNGWFPVEEEMDPAQIRRAVSKEYPLDSEMIHMEKHRPRHPSFFSKIDNSTQSDRMLHENRRPPKESLRRDEQLRSNNNLPDSHPFYGEDASWNQSSSRNSDLDFLPERSVSATETSADVLHGIAIKCGAKVEYKPSLVSSTDLRFSVEAWLSNQKIGEGIGKSRREALHKAAEASIQNLADGYMRANGDPGPSHRDATPFTNENISMGNANALNNQPFARDETALPVSSRPTDPRLEGSMRHTGSITALRELCASEGLEMAFQSQRQLPSDMVHRDELHAQVEIDGRVVGEGVGSTWDEARMQAAERALSSVRSMLGQPLHKRQGSPRSFGGMSNKRLKPDFQRSLQRMPSSGRYS | binds | –
2 | FRY2-c-TAP (protein, UniProt Q5YDB6 1-967) MYSNNRVEVFHGDGRLGELEIYPSRELNQQQDDVMKQRKKKQREVMELAKMGIRISHFSQSGERCPPLAILTTISSCGLCFKLEASPSPAQESLSLFYSSCLRDNKTAVMLLGGEELHLVAMYSENIKNDRPCFWAFSVAPGIYDSCLVMLNLRCLGIVFDLDETLVVANTMRSFEDKIDGFQRRINNEMDPQRLAVIVAEMKRYQDDKNLLKQYIESDQVVENGEVIKVQSEIVPALSDNHQPLVRPLIRLQEKNIILTRINPMIRDTSVLVRMRPSWEELRSYLTAKGRKRFEVYVCTMAERDYALEMWRLLDPEGNLINTNDLLARIVCVKSGFKKSLFNVFLDGTCHPKMALVIDDRLKVWDEKDQPRVHVVPAFAPYYSPQAEAAATPVLCVARNVACGVRGGFFRDFDDSLLPRIAEISYENDAEDIPSPPDVSHYLVSEDDTSGLNGNKDPLSFDGMADTEVERRLKEAISASSAVLPAANIDPRIAAPVQFPMASASSVSVPVPVQVVQQAIQPSAMAFPSIPFQQPQQPTSIAKHLVPSEPSLQSSPAREEGEVPESELDPDTRRRLLILQHGQDTRDPAPSEPSFPQRPPVQAPPSHVQSRNGWFPVEEEMDPAQIRRAVSKEYPLDSEMIHMEKHRPRHPSFFSKIDNSTQSDRMLHENRRPPKESLRRDEQLRSNNNLPDSHPFYGEDASWNQSSSRNSDLDFLPERSVSATETSADVLHGIAIKCGAKVEYKPSLVSSTDLRFSVEAWLSNQKIGEGIGKSRREALHKAAEASIQNLADGYMRANGDPGPSHRDATPFTNENISMGNANALNNQPFARDETALPVSSRPTDPRLEGSMRHTGSITALRELCASEGLEMAFQSQRQLPSDMVHRDELHAQVEIDGRVVGEGVGSTWDEARMQAAERALSSVRSMLGQPLHKRQGSPRSFGGMSNKRLKPDFQRSLQRMPSSGRYS | – | binding [2]: binds
3 | FRY2/CPL1, full length, fused with the activation domain (AD) (protein, UniProt Q5YDB6 1-967) MYSNNRVEVFHGDGRLGELEIYPSRELNQQQDDVMKQRKKKQREVMELAKMGIRISHFSQSGERCPPLAILTTISSCGLCFKLEASPSPAQESLSLFYSSCLRDNKTAVMLLGGEELHLVAMYSENIKNDRPCFWAFSVAPGIYDSCLVMLNLRCLGIVFDLDETLVVANTMRSFEDKIDGFQRRINNEMDPQRLAVIVAEMKRYQDDKNLLKQYIESDQVVENGEVIKVQSEIVPALSDNHQPLVRPLIRLQEKNIILTRINPMIRDTSVLVRMRPSWEELRSYLTAKGRKRFEVYVCTMAERDYALEMWRLLDPEGNLINTNDLLARIVCVKSGFKKSLFNVFLDGTCHPKMALVIDDRLKVWDEKDQPRVHVVPAFAPYYSPQAEAAATPVLCVARNVACGVRGGFFRDFDDSLLPRIAEISYENDAEDIPSPPDVSHYLVSEDDTSGLNGNKDPLSFDGMADTEVERRLKEAISASSAVLPAANIDPRIAAPVQFPMASASSVSVPVPVQVVQQAIQPSAMAFPSIPFQQPQQPTSIAKHLVPSEPSLQSSPAREEGEVPESELDPDTRRRLLILQHGQDTRDPAPSEPSFPQRPPVQAPPSHVQSRNGWFPVEEEMDPAQIRRAVSKEYPLDSEMIHMEKHRPRHPSFFSKIDNSTQSDRMLHENRRPPKESLRRDEQLRSNNNLPDSHPFYGEDASWNQSSSRNSDLDFLPERSVSATETSADVLHGIAIKCGAKVEYKPSLVSSTDLRFSVEAWLSNQKIGEGIGKSRREALHKAAEASIQNLADGYMRANGDPGPSHRDATPFTNENISMGNANALNNQPFARDETALPVSSRPTDPRLEGSMRHTGSITALRELCASEGLEMAFQSQRQLPSDMVHRDELHAQVEIDGRVVGEGVGSTWDEARMQAAERALSSVRSMLGQPLHKRQGSPRSFGGMSNKRLKPDFQRSLQRMPSSGRYS | – | binding [3]: binds
4 | FLAG-SHI1 (protein, UniProt Q8W4B1 1-652) MERSRSKRNYHYDQDYDGDSMPRSKPRYNNNYHFGGGGGGNNRYRGGGGGGGGNGRPSKSHPETMATTTYRILCHDAKAGGVIGKSGTIIKSIRQHTGAWINVHELVPGDAERIIEISDNRRRDPDGRMPSFSPAQEALFSVHDRILESEAQFGYGGPPPEEEEDYGGVRPGGGRVVTRLVVSRMHVGCLLGKGGKIIEQMRIETKTHIRILPRESNLPRCVSLSEEIVQIVGELNAVKNALAIVSSRLRESQHRDRSNFQGRSHSPERSFAAAGDDYMPQLRRQSSDRFPRGNFRNNNFSSRQSNYAEEAPAVPVGENVYSEELVFQILCPADKIVRVVGESQGIIDLLQNEIGVDVRVSDPVAGSDEQIITISSEEAPDDPFFPAQEALLHIQTQIIDLIPDKDNLITTRLLVPSRDSICLEGKAGSVSEISRLTGTSVQILAREEIPRCASINDVVIQITGEIRAAREALVELTLLLRSHMFKELSQKETPPASTSTTGPLEGVAGVMEVASSNNTIQSREGPTSSNLNLQQVSTILPQFKEGFGSVAKAGESEHREEVPVTTSRMAVPLVTRSTLEVVLPEAVVPKLVTKSRNKLAQISEWSGASVTIVEDRPEETQNIIRISGTPEQAERAQSLLQGFILSIQEDGP | – | binding [4]: binds

Now from value to binder, other results behind:

Row | binding [1] | Binder | other results
5 | binds | FRY2/CPL1 533-967 (medium sized prey cDNA clone of the two-hybrid screen) (domain or fragment, UniProt Q5YDB6 533-967) QQPQQPTSIAKHLVPSEPSLQSSPAREEGEVPESELDPDTRRRLLILQHGQDTRDPAPSEPSFPQRPPVQAPPSHVQSRNGWFPVEEEMDPAQIRRAVSKEYPLDSEMIHMEKHRPRHPSFFSKIDNSTQSDRMLHENRRPPKESLRRDEQLRSNNNLPDSHPFYGEDASWNQSSSRNSDLDFLPERSVSATETSADVLHGIAIKCGAKVEYKPSLVSSTDLRFSVEAWLSNQKIGEGIGKSRREALHKAAEASIQNLADGYMRANGDPGPSHRDATPFTNENISMGNANALNNQPFARDETALPVSSRPTDPRLEGSMRHTGSITALRELCASEGLEMAFQSQRQLPSDMVHRDELHAQVEIDGRVVGEGVGSTWDEARMQAAERALSSVRSMLGQPLHKRQGSPRSFGGMSNKRLKPDFQRSLQRMPSSGRYS | –
6 | binds | FRY2/CPL1 666-967 (shortest prey cDNA clone of the two-hybrid screen) (domain or fragment, UniProt Q5YDB6 666-967) MLHENRRPPKESLRRDEQLRSNNNLPDSHPFYGEDASWNQSSSRNSDLDFLPERSVSATETSADVLHGIAIKCGAKVEYKPSLVSSTDLRFSVEAWLSNQKIGEGIGKSRREALHKAAEASIQNLADGYMRANGDPGPSHRDATPFTNENISMGNANALNNQPFARDETALPVSSRPTDPRLEGSMRHTGSITALRELCASEGLEMAFQSQRQLPSDMVHRDELHAQVEIDGRVVGEGVGSTWDEARMQAAERALSSVRSMLGQPLHKRQGSPRSFGGMSNKRLKPDFQRSLQRMPSSGRYS | –
